Laboratory results as given in paper PMC4229683.

B1: Caprin (protein, UniProt Q9I7D3 1-961)
chain: MPSAANTATVTAAIATTVAASASNTNNNSVSKEKRSSIISLGGSVIPGTAVAAGAGVATTNGQSNSSAAATADGSQTDLASSNNNGNAAKSKANAVSAAAVVPEPYNPLKQLLVTIEHKIRNLEKRKTKLESYRAIQSSGKELSGDQASAVAKYDAVLANLEFARELAKHIQQQSKEAEKEQKKQARKDNLAKTIAETAKIREVLIIQNVLNCFNDDQVRSDFLNGENGAKKLENTELELLEKFFIETQTRRPETADDVSFIATAQKSAELFYSTINARPKSFGEVSFEKLRSLFQQIQDSGYLDKYYLVPLAENAVANSTDSGTGSGDGESGDLLNDGSGELDAELPSEPSARNSLEEGLDKLHLGVQAELDQHQSYQQQQERPSHLLEPQHQRAPSLEHQQNSMVQQVSTQVYQAAPQAGGTTTPVHVLYAPAPPAQQQPQQPPPHPHQLLSSPVNLQALQTGTAAPPAQQQQPHPTHFAPNVRAVEQNYFKQPPQHPQGPGIQAPQTPQQQQFMQHSRPLAEVLGTGRFHFLQDSELDNPEALAPPPPTNQGLVFEQQPQQPNHVEEPTQAILTLTFTNQSFPSQQPQPQQQGPQQQQQLFSPVLIHEQRQQPPQQQPQPMLIMPRLPTQQPQQPAPQGIGMQAGDVTSGFSYENAVVSYEQQIQQQLKQQQQQQQQQQQNLQQLDEPSSVNSSSSVGAGGDVENNEWHARNNDTNAAATAALTNVLKGETTQATPPAPPTKWSSEMNAMSSAASNGSSNTSHKQEWATPRDHSTGGGNSGYADNNESNNHWNNSQGDGRRNSGNYQRRGGDRDNRDRDQGGRGDERRNGGDRGNYRSRQYGNSSNTNGRNSGNSSGVYFRNNESGNGGGNNYYQNGGGGGGTYNKESRYESSGGGGGSYRGQRGGNQQRNVNGSYGGGRPMGDRGRGGAGNQGGGGGGYINRQNQSQRMPLGLENKN
B2: Argonaute-2 (protein, UniProt Q9VUQ5 1-1214)
chain: MGKKDKNKKGGQDSAAAPQPQQQQKQQQQRQQQPQQLQQPQQLQQPQQLQQPQQQQQQQPHQQQQQSSRQQPSTSSGGSRASGFQQGGQQQKSQDAEGWTAQKKQGKQQVQGWTKQGQQGGHQQGRQGQDGGYQQRPPGQQQGGHQQGRQGQEGGYQQRPPGQQQGGHQQGRQGQEGGYQQRPSGQQQGGHQQGRQGQEGGYQQRPPGQQQGGHQQGRQGQEGGYQQRPSGQQQGGHQQGRQGQEGGYQQRPPGQQQGGHQQGRQGQEGGYQQRPPGQQQGGHEQGRQGQEGGYQQRPSGQQQGGHQQGRQGQEGGYQQRPSGQQQGGHQQGRQGQEGGYQQRPSGQQQGGHQQGRQGQEGGYQQRPPGQQPNQTQSQGQYQSRGPPQQQQAAPLPLPPQPAGSIKRGTIGKPGQVGINYLDLDLSKMPSVAYHYDVKIMPERPKKFYRQAFEQFRVDQLGGAVLAYDGKASCYSVDKLPLNSQNPEVTVTDRNGRTLRYTIEIKETGDSTIDLKSLTTYMNDRIFDKPMRAMQCVEVVLASPCHNKAIRVGRSFFKMSDPNNRHELDDGYEALVGLYQAFMLGDRPFLNVDISHKSFPISMPMIEYLERFSLKAKINNTTNLDYSRRFLEPFLRGINVVYTPPQSFQSAPRVYRVNGLSRAPASSETFEHDGKKVTIASYFHSRNYPLKFPQLHCLNVGSSIKSILLPIELCSIEEGQALNRKDGATQVANMIKYAATSTNVRKRKIMNLLQYFQHNLDPTISRFGIRIANDFIVVSTRVLSPPQVEYHSKRFTMVKNGSWRMDGMKFLEPKPKAHKCAVLYCDPRSGRKMNYTQLNDFGNLIISQGKAVNISLDSDVTYRPFTDDERSLDTIFADLKRSQHDLAIVIIPQFRISYDTIKQKAELQHGILTQCIKQFTVERKCNNQTIGNILLKINSKLNGINHKIKDDPRLPMMKNTMYIGADVTHPSPDQREIPSVVGVAASHDPYGASYNMQYRLQRGALEEIEDMFSITLEHLRVYKEYRNAYPDHIIYYRDGVSDGQFPKIKNEELRCIKQACDKVGCKPKICCVIVVKRHHTRFFPSGDVTTSNKFNNVDPGTVVDRTIVHPNEMQFFMVSHQAIQGTAKPTRYNVIENTGNLDIDLLQQLTYNLCHMFPRCNRSVSYPAPAYLAHLVAARGRVYLTGTNRFLDLKKEYAKRTIVPEFMKKNPMYFV
B3: DmGluRA (receptor, UniProt P91685 26-976)
chain: KSPSNTHTQDSVSVSLPGDIILGGLFPVHEKGEGAPCGPKVYNRGVQRLEAMLYAIDRVNNDPNILPGITIGVHILDTCSRDTYALNQSLQFVRASLNNLDTSGYECADGSSPQLRKNASSGPVFGVIGGSYSSVSLQVANLLRLFHIPQVSPASTAKTLSDKTRFDLFARTVPPDTFQSVALVDILKNFNWSYVSTIHSEGSYGEYGIEALHKEATERNVCIAVAEKVPSAADDKVFDSIISKLQKKPNARGVVLFTRAEDARRILQAAKRANLSQPFHWIASDGWGKQQKLLEGLEDIAEGAITVELQSEIIADFDRYMMQLTPETNQRNPWFAEYWEDTFNCVLTSLSVKPDTSNSANSTDNKIGVKAKTECDDSYRLSEKVGYEQESKTQFVVDAVYAFAYALHNLHNDRCNTQSDQTTETRKHLQSESVWYRKISTDTKSQACPDMANYDGKEFYNNYLLNVSFIDLAGSEVKFDRQGDGLARYDILNYQRQENSSGYQYKVIGKWFNGLQLNSETVVWNKETEQPTSACSLPCEVGMIKKQQGDTCCWICDSCESFEYVYDEFTCKDCGPGLWPYADKLSCYALDIQYMKWNSLFALIPMAIAIFGIALTSIVIVLFAKNHDTPLVRASGRELSYTLLFGILVCYCNTFALIAKPTIGSCVLQRFGIGVGFSIIYSALLTKTNRISRIFHSASKSAQRLKYISPQSQVVITTSLIAIQVLITMIWMVVEPPGTRFYYPDRREVILKCKIQDMSFLFSQLYNMILITICTIYAIKTRKIPENFNESKFIGFTMYTTCIIWLAFVPIYFGTGNSYEVQTTTLCISISLSASVALVCLYSPKVYILVFHPDKNVRKLTMNSTVYRRSAAAVAQGAPTSSGYSRTHAPGTSALTGGAVGTNASSSTLPTQNSPHLDEASAQTNVAHKTNGEFLPEVGERVEPICHIVNK

These binders were tested against Drep-2^GFP (D. melanogaster) (assay: affinity purification with mass spectrometry; Drep-2^GFP isolated from fly head lysates (0.4% DOC, 1% Triton) on GFP-Trap agarose beads, 60 min at 4°C; controls: plain beads and GFP-negative wild-type lysate; triplicates, label-free quantification, FDR 1, 5 or 10%).
B1 was tested, and the binding was “binds”. In the case of B2, the binding is reported as “binds”. B3 was tested, and the binding was “no binding”.

Results are given in words; binding and its absence hold for the method and conditions named. Binding seen in cells or lysates may run through a third protein. These calls come from enrichment with a bait or labelling near it, and not all partners need be listed. No binding means not detected with the bait.
